The test system of this test is CD2F1 mice, L1210 leukemia ip, survival T/C. Description: NCI In Vivo Anticancer Drug Screen. Data for tumor model L1210 Leukemia (intraperitoneal) in CD2F1 (CDF1) mice. The conditions noted are these: higher T/C = longer survival. In short, it runs like this: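 Implant tumor; dose compound or vehicle; measure endpoint in both groups; report treated divided by control.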

[1] abbreviates: T/C endpoint: mean survival time, dose: 100.0 mg/kg/injection, schedule: Q04DX002 (ip), vehicle: saline with Tween-80.
[2] abbreviates: T/C endpoint: mean survival time, dose: 400.0 mg/kg/injection, schedule: Q04DX002 (ip), vehicle: saline with Tween-80.
Where [3] appears, read: T/C endpoint: mean survival time, dose: 75.0 mg/kg/injection, schedule: Q01DX001 (ip), vehicle: saline.
The mark [4] stands for this setting: T/C endpoint: mean survival time, dose: 300.0 mg/kg/injection, schedule: Q01DX001 (ip), vehicle: saline.
Setting [5] is: T/C endpoint: mean survival time, dose: 400.0 mg/kg/injection, schedule: Q01DX009 (ip), vehicle: Klucel (hydroxypropylcellulose) (HPC).
[6] abbreviates: T/C endpoint: mean survival time, dose: 50.0 mg/kg/injection, schedule: Q01DX009 (ip), vehicle: saline with Tween-80.
Setting [7] is: T/C endpoint: mean survival time, dose: 100.0 mg/kg/injection, schedule: Q01DX009 (ip), vehicle: saline with Tween-80.
Where [8] appears, read: T/C endpoint: mean survival time, dose: 200.0 mg/kg/injection, schedule: Q01DX009 (ip), vehicle: saline with Tween-80.
Setting [9] is: T/C endpoint: mean survival time, dose: 200.0 mg/kg/injection, schedule: Q04DX003 (ip), vehicle: saline with Tween-80.
Setting [10] is: T/C endpoint: mean survival time, dose: 150.0 mg/kg/injection, schedule: Q01DX001 (ip), vehicle: saline.

The list shows only some results of the screen, not a fair sample: it is rich in T/C values a quarter to a half above the control, in often repeated tests (any T/C) and in doses without a T/C. Other doses and runs of a compound stand elsewhere. T/C: endpoint of the treated group in % of that of the vehicle group. Some entries give survivors of the animals treated and no T/C: the source holds a T/C of zero for them, seemingly a mark for toxic or unscored doses. Some survivor counts are full or nearly so, which does not show that the dose was tolerated: survival well below the control is almost never listed, so the zero probably covers shortened survival too. Counts of survivors are from the toxicity check (mostly the fifth day) where no day follows; animals may have died later. Schedule codes are those of the source, read here as Q, the interval in days (D) or hours (H), X, the number of doses. Marks such as (2×) say how often a value occurs here. Some entries were tested several times; the values are given in rising order. Where survival is the endpoint, the PubChem record calls one and a half times the control and up active, and a quarter to a half above the control has no call in these data; cut-offs in other NCI protocols can differ.

Turning to `CC12COC(=O)C1(C)C1CCC2O1` (stereo unspecified), the survivor count (T/C endpoint: mean survival time, dose: 20.0 mg/kg/injection, schedule: Q01DX002 (ip), vehicle: saline with Tween-80) is reported as 1 of 3; the survivor count under setting [1] was 0 of 3; the survivor count (T/C endpoint: mean survival time, dose: 200.0 mg/kg/injection, schedule: Q04DX002 (ip), vehicle: saline with Tween-80) is on record as 0 of 3; the survivor count under setting [2] is given as 0 of 3.

As to `O=C(Cl)C12CC3CC(CC(C3)C1)C2`, the survivor count (T/C endpoint: mean survival time, dose: 200.0 mg/kg/injection, schedule: Q01DX009 (ip), vehicle: other) is 4 of 5.

For the compound `CCOC(=O)CC(=O)C(F)(F)F.CCOC(=O)CC(=O)C(F)(F)F.[Ni]`, the survivor count runs as follows: under setting [3], 3 of 6; under setting [4], 0 of 6.

Take `CC(=O)CC(C)(C)C1CCCCC1`: under setting [5], the survivor count is on record as 6 of 6.

Regarding `CC/C(=C(/CC)c1ccc(OP(N)(=O)N(CCCl)CCCl)cc1)c1ccc(OP(N)(=O)N(CCCl)CCCl)cc1` (stereo unspecified), for the setting “T/C endpoint: mean survival time, dose: 450.0 mg/kg/injection, schedule: Q01DX001 (ip), vehicle: DMSO”, the survivor count is 3 of 6.

As to `N#CC[CH2][Sn]([I])([c]1ccccc1)[c]1ccccc1`, where the note is “T/C endpoint: mean survival time, dose: 25.0 mg/kg/injection, schedule: Q04DX003 (ip), vehicle: saline with Tween-80”, the survivor count was 0 of 3.

Turning to `CN(Cc1cnc2nc(N)nc(N)c2n1)c1ccc(C(=O)NC(CCC(=O)NCc2ccccc2)C(=O)O)cc1` (stereo unspecified), the T/C runs as follows: (T/C endpoint: mean survival time, dose: 25.0 mg/kg/injection, schedule: Q01DX009 (ip), vehicle: sodium bicarbonate) 125 % of control; (T/C endpoint: mean survival time, dose: 50.0 mg/kg/injection, schedule: Q01DX009 (ip), vehicle: sodium bicarbonate) 128 % of control; (T/C endpoint: mean survival time, dose: 100.0 mg/kg/injection, schedule: Q01DX009 (ip), vehicle: sodium bicarbonate) 133 % of control.

As for `NCCCN1CCN(c2ccccc2)CC1`, the survivor count under setting [2] was 2 of 3.

With `CC1CC[N-]CC1.CC1CC[N-]CC1.CC1CC[N-]CC1.CC1CC[N-]CC1.CS(C)=O.CS(C)=O.[Cl-].[Cl-].[Cl-].[Cl-].[Pt+4].[Rh+3]`, the survivor count is on record as 5 of 6 (T/C endpoint: mean survival time, dose: 6.25 mg/kg/injection, schedule: Q04DX003 (ip), vehicle: Klucel (hydroxypropylcellulose) (HPC)); 0 of 6 (T/C endpoint: mean survival time, dose: 12.5 mg/kg/injection, schedule: Q04DX003 (ip), vehicle: water); 0 of 6 (T/C endpoint: mean survival time, dose: 25.0 mg/kg/injection, schedule: Q04DX003 (ip), vehicle: water); 0 of 6 (T/C endpoint: mean survival time, dose: 50.0 mg/kg/injection, schedule: Q04DX003 (ip), vehicle: Klucel (hydroxypropylcellulose) (HPC)); 0 of 6 (T/C endpoint: mean survival time, dose: 50.0 mg/kg/injection, schedule: Q04DX003 (ip), vehicle: water); 0 of 6 (T/C endpoint: mean survival time, dose: 100.0 mg/kg/injection, schedule: Q04DX003 (ip), vehicle: Klucel (hydroxypropylcellulose) (HPC)). In addition, the survivor count is, setting by setting: (T/C endpoint: mean survival time, dose: 200.0 mg/kg/injection, schedule: Q04DX003 (ip), vehicle: Klucel (hydroxypropylcellulose) (HPC)) 0 of 6; (T/C endpoint: mean survival time, dose: 400.0 mg/kg/injection, schedule: Q04DX003 (ip), vehicle: Klucel (hydroxypropylcellulose) (HPC)) 0 of 6.

Consider `O/N=C/C=N/O.O/N=C/C=N/O.[Pd]`, for which the survivor count is, setting by setting: (T/C endpoint: mean survival time, dose: 12.5 mg/kg/injection, schedule: Q01DX009 (ip), vehicle: saline with Tween-80) 0 of 6; (T/C endpoint: mean survival time, dose: 25.0 mg/kg/injection, schedule: Q01DX009 (ip), vehicle: saline with Tween-80) 0 of 6; (T/C endpoint: mean survival time, dose: 25.0 mg/kg/injection, schedule: Q04DX002 (ip), vehicle: saline with Tween-80) 0 of 3; (T/C endpoint: mean survival time, dose: 50.0 mg/kg/injection, schedule: Q04DX002 (ip), vehicle: saline with Tween-80) 0 of 3; under setting [1], 0 of 3.

In the case of `O=c1c2cccc3cccc(c32)c2nc3ccccc3n12`, the survivor count is, setting by setting: under setting [6], 2 of 6; under setting [7], 0 of 6; under setting [8], 0 of 6.

With `ClCCn1c(CCl)nc2ccccc21`, the survivor count (T/C endpoint: mean survival time, dose: 40.0 mg/kg/injection, schedule: Q01DX009 (ip), vehicle: saline) is 2 of 6.

On to `CN1CC(NC(=O)N(CCCl)N=O)CC2c3cccc4[nH]cc(c34)CC21` (stereo unspecified), for which the T/C (T/C endpoint: mean survival time, dose: 25.0 mg/kg/injection, schedule: Q01DX001 (ip), vehicle: other) is 137 % of control.

For `O=c1n(-c2ccccc2)c(=O)n2n1C1C=CC2C2CC2/C=C\1` (stereo unspecified), the survivor count (T/C endpoint: median survival time, dose: 400.0 mg/kg/injection, schedule: Q04DX002 (ip), vehicle: saline with Tween-80) was 0 of 3.

Turning to `CCOC(=O)c1ccc2c(c1)Cc1cc(N)ccc1-2`, where the note is “T/C endpoint: mean survival time, dose: 400.0 mg/kg/injection, schedule: Q01DX001 (ip), vehicle: carboxymethylcellulose (CMC)”, the survivor count is listed as 2 of 4.

Take `Cc1ccc(C2CC3c4ccccc4C2C2CCCCN32)cc1` (stereo unspecified): the survivor count (T/C endpoint: mean survival time, dose: 3.13 mg/kg/injection, schedule: Q01DX009 (ip), vehicle: water) was 6 of 6; the survivor count (T/C endpoint: mean survival time, dose: 25.0 mg/kg/injection, schedule: Q01DX009 (ip), vehicle: water) was 6 of 6 (2×); the survivor count (T/C endpoint: mean survival time, dose: 50.0 mg/kg/injection, schedule: Q01DX009 (ip), vehicle: water) is 0 of 6 and 3 of 6; the survivor count (T/C endpoint: mean survival time, dose: 100.0 mg/kg/injection, schedule: Q01DX009 (ip), vehicle: water) was 0 of 6 (2×); the survivor count (T/C endpoint: mean survival time, dose: 200.0 mg/kg/injection, schedule: Q01DX009 (ip), vehicle: water) was 0 of 6 (2×); the survivor count (T/C endpoint: mean survival time, dose: 400.0 mg/kg/injection, schedule: Q01DX009 (ip), vehicle: water) was 0 of 6 (2×).

As for `CC1(OC(=O)c2ccccc2)CC(C)(C)[N+]([O-])=N1` (stereo unspecified), the survivor count under setting [5] is recorded as 4 of 6.

Regarding `COc1cc(C(C2=C(O)c3ccccc3C(=O)C2=O)C2=C(O)c3ccccc3C(=O)C2=O)cc(Br)c1O`, the survivor count (T/C endpoint: mean survival time, dose: 400.0 mg/kg/injection, schedule: Q01DX009 (ip), vehicle: alcohol) is given as 5 of 6.

With `CCC(/C=C/C(C)C1CCC2C3CCC45CC4CCC5(C)C3CCC12C)C(C)C` (stereo unspecified), the survivor count under setting [9] is given as 6 of 6.

As to `CC(C)C(=O)Nc1ccc(Cl)cc1`, the survivor count (T/C endpoint: mean survival time, dose: 400.0 mg/kg/injection, schedule: Q01DX009 (ip), vehicle: saline with Tween-80) is 2 of 6.

Take `Cc1cc(NCCN(C(C)C)C(C)C)nc(Nc2nc3cc(Cl)c(Cl)cc3[nH]2)n1`: the survivor count was 1 of 6 under setting [6]; 0 of 6 under setting [7]; 0 of 6 under setting [8]; 6 of 6 under setting [9]; 5 of 6 (T/C endpoint: mean survival time, dose: 400.0 mg/kg/injection, schedule: Q04DX003 (ip), vehicle: saline with Tween-80).

`CC(C)(C)CC(C)(C)c1ccc(OCCOc2ccccc2NS(=O)(=O)c2ccc(N)cc2)cc1`: the survivor count (T/C endpoint: mean survival time, dose: 400.0 mg/kg/injection, schedule: Q01DX001 (ip), vehicle: Klucel (hydroxypropylcellulose) (HPC)) is 6 of 6.

Regarding `O=C(NCCCN1CC1)C(=O)NCCCN1CC1`, the T/C by setting is: (T/C endpoint: mean survival time, dose: 0.78 mg/kg/injection, schedule: Q01DX009 (ip), vehicle: saline) 136 % of control; (T/C endpoint: mean survival time, dose: 1.56 mg/kg/injection, schedule: Q01DX009 (ip), vehicle: saline) 134 % of control; (T/C endpoint: mean survival time, dose: 3.13 mg/kg/injection, schedule: Q01DX009 (ip), vehicle: saline) 143 % of control.

For `O=C(O)CC1OCC=C2CN3CCC45c6ccccc6NC4C1C2CC35` (stereo unspecified), the survivor count runs as follows: under setting [3], 0 of 6 and 2 of 6; under setting [10], 0 of 6 and 1 of 6; under setting [4], 0 of 6 (2×).

Consider `Nc1nc2c(ncn2-c2ccc(OCCCc3ccccc3)cc2)c(=O)[nH]1`, for which the survivor count (T/C endpoint: mean survival time, dose: 100.0 mg/kg/injection, schedule: Q01DX001 (ip), vehicle: saline with Tween-80) is given as 5 of 6.

`CC1CCCN(N=Nc2ccc(Br)cc2-c2nc(N)c3cc(Br)ccc3n2)C1` (stereo unspecified): under “T/C endpoint: mean survival time, dose: 200.0 mg/kg/injection, schedule: Q01DX001 (ip), vehicle: Klucel (hydroxypropylcellulose) (HPC)”, the survivor count was 3 of 3.

For the compound `CCN(CC)N=Nc1ccccc1`, the survivor count reads like this: under setting [10], 3 of 6; under setting [4], 0 of 6.

As to `O=C(O)C/C=C/Br`, the survivor count under setting [4] is 2 of 6.

The record behind these values is PubChem BioAssay AID256 (DTP/NCI, 2004).
